Source: the supplement of paper PMC8728848
The other results are listed elsewhere or left out.

Tests used:
Experiment in all cases: glycan array binding signal (z-score within array); higher = stronger binding
Details in all cases: glycan notation: IUPAC condensed, linker removed
[1] = target: Neu5Gc(a2-8)Neu5Gc(a2-3)Gal(b1-4)GlcNAc(b1-3)Gal(b1-4)GlcNAc
Method in brief: (§1)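 From the Consortium for Functional Glycomics database, 3228 arrays were curated, keeping only those whose protein sequence was available. Binding is given as a within-array Z-score averaged across arrays sharing a protein sequence and across linkers. Negative Z-scores can be read as non-binding.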

[2] = target: Neu5Gc(a2-8)Neu5Gc(a2-6)Gal(b1-4)GlcNAc
Method in brief: as §1

[3] = target: Neu5Gc(b2-6)Gal(b1-4)GlcNAc
Method in brief: as §1

B1: MtEccB1 (Mycobacterium tuberculosis H37Rv), O69734 (protein)
chain: MGLRLTTKVQVSGWRFLLRRLEHAIVRRDTRMFDDPLQFYSRSIALGIVVAVLILAGAALLAYFKPQGKLGGTSLFTDRATNQLYVLLSGQLHPVYNLTSARLVLGNPANPATVKSSELSKLPMGQTVGIPGAPYATPVSAGSTSIWTLCDTVARADSTSPVVQTAVIAMPLEIDASIDPLQSHEAVLVSYQGETWIVTTKGRHAIDLTDRALTSSMGIPVTARPTPISEGMFNALPDMGPWQLPPIPAAGAPNSLGLPDDLVIGSVFQIHTDKGPQYYVVLPDGIAQVNATTAAALRATQAHGLVAPPAMVPSLVVRIAERVYPSPLPDEPLKIVSRPQDPALCWSWQRSAGDQSPQSTVLSGRHLPISPSAMNMGIKQIHGTATVYLDGGKFVALQSPDPRYTESMYYIDPQGVRYGVPNAETAKSLGLSSPQNAPWEIVRLLVDGPVLSKDAALLEHDTLPADPSPRKVPAGASGAP
[1]
  glycan array binding signal (z-score): -1.2
[2]
  glycan array binding signal (z-score): -0.087
[3]
  glycan array binding signal (z-score): -0.779
